Laboratory results reported in article PMC5346638, “Azadiradione ameliorates polyglutamine expansion disease in Drosophila by potentiating DNA binding activity of heat shock factor 1” (Oncotarget, 2016).
These are yes or no findings as the source states them, for the method shown. Some binding calls cover weakened binding; strength is not graded here. For part of these data: Where a sequence is shown, tags or fusion partners need not be part of it.

B1: human heat shock factor 1 (HSF1), his6-tagged, purified recombinant, Q00613 1-529 (protein)
chain: MDLPVGPGAAGPSNVPAFLTKLWTLVSDPDTDALICWSPSGNSFHVFDQGQFAKEVLPKYFKHNNMASFVRQLNMYGFRKVVHIEQGGLVKPERDDTEFQHPCFLRGQEQLLENIKRKVTSVSTLKSEDIKIRQDSVTKLLTDVQLMKGKQECMDSKLLAMKHENEALWREVASLRQKHAQQQKVVNKLIQFLISLVQSNRILGVKRKIPLMLNDSGSAHSMPKYSRQFSLEHVHGSGPYSAPSPAYSSSSLYAPDAVASSGPIISDITELAPASPMASPGGSIDERPLSSSPLVRVKEEPPSPPQSPRVEEASPGRPSSVDTLLSPTALIDSILRESEPAPASVTALTDARGHTDTEGRPPSPPPTSTPEKCLSVACLDKNELSDHLDAMDSNLDNLQTMLSSHGFSVDTSALLDLFSPSVTVPDMSLPDLDSSLASIQELLSPQEPPRPPEAENSSPDSGKQLVHYTAQPLFLLDPGSVDTGSNDLPVLFELGEGSYFSEGDGFAEDPTISLLTGSEPPKAKDPTVS

Columns and labels:
[1] = target: human heat shock factor 1 (HSF1), his6-tagged, purified recombinant (human) (UniProt Q00613); assay: light scattering at 350 nm; as a1 but with 1 mM DTT in the reaction; HSF1 (2 uM) with AZD or heat shock; both purified
[2] = target: T1, human heat shock factor 1 (HSF1), his6-tagged, purified recombinant (human), Q00613; assay: light scattering at 350 nm; HSF1 (2 uM) in a cell-free system with AZD (4 and 8 uM) or heat shock; kinetics of multimerization followed in a spectrophotometer; both purified; settings: remark: other sources report otherwise
T1 chain: B1 chain

[3] = target: T1, human heat shock factor 1 (HSF1), …; assay: dynamic light scattering; purified HSF1 with AZD added; shift of the population to higher molecular weight species (Figure S7); both purified; settings: remark: other sources report otherwise

Molecule | binding [1] | binding [2] | binding [3]
human heat shock factor 1 (HSF1), his6-tagged, purified recombinant (from UniProt Q00613 1-529) | no binding (condition: with 1 mM DTT) | – | –
B1 | – | binds | binds
